Reference: paper PMC12372902
No constants are given. Whether binding was seen depends on the method and setting. In cells and extracts the contact can be indirect. Some results given as binding are weak or reduced against the parent protein; the word gives no strength.

Chains of the proteins cited; added tags and fusions are not shown. Lines headed by an entry give the natural chain unless they say otherwise; changes in a name come on top.
UniProt Q15172, whole entry: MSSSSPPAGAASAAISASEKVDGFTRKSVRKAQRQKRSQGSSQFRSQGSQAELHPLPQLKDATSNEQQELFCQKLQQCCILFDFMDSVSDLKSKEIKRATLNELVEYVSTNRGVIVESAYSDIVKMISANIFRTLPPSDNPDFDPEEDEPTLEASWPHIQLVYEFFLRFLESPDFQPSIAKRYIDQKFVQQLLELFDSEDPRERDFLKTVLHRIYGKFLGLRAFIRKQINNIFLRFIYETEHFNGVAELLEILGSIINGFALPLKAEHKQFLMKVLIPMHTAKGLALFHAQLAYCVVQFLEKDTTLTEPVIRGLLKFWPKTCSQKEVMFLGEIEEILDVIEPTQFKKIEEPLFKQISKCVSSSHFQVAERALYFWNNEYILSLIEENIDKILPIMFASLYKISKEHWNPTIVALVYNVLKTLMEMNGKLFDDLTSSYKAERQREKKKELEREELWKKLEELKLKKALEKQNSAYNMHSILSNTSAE
UniProt P01106, whole entry: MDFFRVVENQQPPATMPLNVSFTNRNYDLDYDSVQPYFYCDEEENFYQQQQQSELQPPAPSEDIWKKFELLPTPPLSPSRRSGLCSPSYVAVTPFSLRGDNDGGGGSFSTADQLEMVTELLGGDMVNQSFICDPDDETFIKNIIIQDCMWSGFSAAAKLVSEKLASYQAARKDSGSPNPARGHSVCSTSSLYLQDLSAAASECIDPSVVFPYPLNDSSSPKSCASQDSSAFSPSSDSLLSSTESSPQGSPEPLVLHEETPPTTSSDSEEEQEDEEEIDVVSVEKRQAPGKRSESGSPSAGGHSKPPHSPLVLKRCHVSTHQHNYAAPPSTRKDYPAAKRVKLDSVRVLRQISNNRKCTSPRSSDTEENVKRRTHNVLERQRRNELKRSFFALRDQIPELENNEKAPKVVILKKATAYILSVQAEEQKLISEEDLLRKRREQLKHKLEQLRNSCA

biological target: hemagglutinin (HA)-tagged PPP2CA (catalytic subunit of PP2A) (UniProt P67775); experiment: co-IP; lysates of HCT116 or SW1116 cells transfected with Flag-AKR1B10 (WT, point mutants or truncations; varying plasmid amounts in shAKR1B10 cells) and HA-PPP2CA; primary antibody and Protein A/G PLUS-Agarose at 4°C overnight, Western blot

| Substance | binding |
| --- | --- |
| Flag-tagged AKR1B10 K263R (from UniProt O60218 1-316) (enzyme) | binds |
| Flag-tagged AKR1B10 truncation lacking the N-terminal residues 1 to 100 (from UniProt O60218 101-316) (domain or fragment) | binds |
| Flag-tagged AKR1B10 P219S (from UniProt O60218 1-316) (enzyme) | binds |
| Flag-tagged AKR1B10 (aldo-keto reductase family 1 member B10), wild type (from UniProt O60218 1-316) (enzyme) | binds |
| endogenous B56α (PPP2R5A), regulatory subunit of PP2A (from UniProt Q15172 1-486) | binds |
| endogenous c-Myc (from UniProt P01106 1-454) | binds |
